The text below walks through data of patent USRE46698E1, “Use of cyclohexanol derivatives as antimicrobial active compounds” (MERCK PATENT GMBH, priority 2011, dated 2018).

The series can be described thus: Deodorant action, inherent odour (Example 2).

In the case of `CCCCOC(=O)C1CCC(O)CC1` (stereo not shown) [Substance I-20, 4-hydroxycyclohexanecarboxylic acid butyl ester], the Inherent odour entry is “of raspberry”.
